# No constants are given. Whether binding was seen depends on the method and setting. In cells and extracts the contact can be indirect. Binding calls can cover weak binding; strength is not graded here. Where a sequence is shown, tags or fusion partners need not be part of it.
# Columns and labels:
# [1] = molecular target: GFP-Wde-1 (full length Windei fused to GFP) (Drosophila); test: co-IP; S2 cells cotransfected with GFP-Wde-1 and POF-HA; IP with anti GFP according to the text, with anti Wde antiserum (preimmune serum as control) according to the legend; blots with anti HA and anti GFP; lysate in TNT buffer
# [2] = molecular target: Wde-3-GFP (fragment of Wde containing the coiled-coil region) (Drosophila); test: co-IP; S2 cells cotransfected with Wde-3-GFP and Egg deletion constructs fused to HA; IP with anti GFP antibody, anti beta-Galactosidase as control; lysate in TNT buffer
binding [1],binding [2],Binder
binds,–,"POF-HA (full length Painting of fourth fused to HA) (protein, UniProt Q9W123 1-495) MDSKRAALESGDGPDAKRLDTTDDQDKEASGGDGSQVMLAKHVAPYTGHGCTPPMESYLFEPTPAGSQLLPWKTSVDLDNDAELEKPTSDKKPDTAKLSRRELAKMRREHTLRALALERELTNKPGQTPASEVLLVRFPDPEITAPMLAGLSKDIRDVVLPISVAPRYCLVHLKAGADVEATICDINRVRFGTGHLRAELKPFSDEEQAEFIDPCSLYVGNIPFNMTTSAIKAYFANAMRVDIGVLKREKRARYAFVRYASPDQTMEAFKELVDSPLNSRTLTVRYRRLRKRAGMPMVQCATSFQALQSPNGDDDNTDCKVISPPPLESIIISDSDNCSDSSGNGKEDGKRKKKINEQEREIEKLKRQMAEYGAIIKSLQFRQNSLEDTFIPDLTPKVEPSVNPTGCLLGSNAVHLMRDIKKECDYLGIPDPVPATKPTTQAQDDSQKKAKRSCFGRLFTGPFRRGTSAMKTADEYEKDDRLEELYAQLERDPDP"
–,binds,"Egg fragment aa 366-521 fused to HA (domain or fragment, UniProt Q32KD2 366-521) EDELDDAIKNVLNKVDFTAQLSWSKTILQAKADHLERQFALADVELEKVQTTADKMHCALYNSCPVAHKHLPTLDIEPSDYVHEVPPPGEIVRPPIQLGETYYAVKNKAIASWVSIKVIEFTESTAINGNTMKSYKIRYLNTPYQMIKTVTAKHIA"

# From paper PMC2730569
